Laboratory results from paper PMC11077067, “Protein G-quadruplex interactions and their effects on phase transitions and protein aggregation”.
Numbering of substitutions follows the chain as printed. Protein sequences can lack the tags named with them. For some assays here: Construct, isoform or probe ends are uncertain for at least one entry. For some assays here: A weaker result is weaker than the reference pair of the same experiment. For some assays here: At least one verdict was read from the data and is not stated in words by the source.

How the values were obtained:
[1] = biological target: T1, Znf706 C-terminal zinc finger (Homo sapiens) (UniProt Q9Y5V0); test: fluorescence polarization; details: 100 mM KCl, very weak, FP/anisotropy: 20 mM NaPi, 0.05% NaN3, pH 7.4, 25 C (LiCl variant: 20 mM Tris-HCl, 100 mM LiCl, pH 7.4), recombinant protein, residues 36-76, label: 5' 6-FAM, folded or branched DNA
T1 sequence (looked up): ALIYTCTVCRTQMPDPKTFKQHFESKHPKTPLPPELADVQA

[2] = biological target: T2, Znf706 A2C-NEM (Homo sapiens) (UniProt Q9Y5V0); test: NMR; details: 2:1 protein:DNA, 100 mM KCl, 4 C, NMR: 20 mM NaPi, 7.5% D2O, pH 7.4, 4-50 C, recombinant protein, residues 1-76, folded or branched DNA
T2 sequence (looked up): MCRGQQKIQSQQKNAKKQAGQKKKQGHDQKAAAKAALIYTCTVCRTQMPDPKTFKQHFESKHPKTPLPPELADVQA

[3] = biological target: T3, Znf706 A76C-MTSL (Homo sapiens) (UniProt Q9Y5V0); test: PRE NMR; details: reciprocal PRE on N-terminus, cMyc implied; NMR: 20 mM NaPi, 100 mM KCl, 7.5% D2O, pH 7.4, 4-50 C; recombinant protein; residues 1-76; folded or branched DNA
T3 sequence (looked up): T2 sequence (looked up) with C2A, A76C

[4] = biological target: T4, Znf706 (Homo sapiens) (UniProt Q9Y5V0); test: fluorescence polarization; details: 100 mM LiCl (G4 disfavored), Kd substantially increased, value in figure; FP/anisotropy: 20 mM NaPi, 100 mM KCl, 0.05% NaN3, pH 7.4, 25 C (LiCl variant: 20 mM Tris-HCl, 100 mM LiCl, pH 7.4); recombinant protein; residues 1-76; label: 5' 6-FAM; folded or branched DNA
T4 sequence (looked up): T2 sequence (looked up) with C2A

[5] = biological target: T4, Znf706 (Homo sapiens); test: NMR; details: perturbation not predominantly N-terminal at 5 uM, perturbed at 50 uM G4; NMR: 20 mM NaPi, 100 mM KCl, 7.5% D2O, pH 7.4, 4-50 C; recombinant protein; residues 1-76; folded or branched DNA

Sequence | Kd [1] [µM] | binding result [4] | also measured
GGGCGCGGGAGGAAGGGGGCGGG [Bcl2WT, 6-FAM] | > 200 |  | 
TAGGGAGGGTAGGGAGGGT [cMyc (Pu19_A2A11)] |  |  | binding result [2]: binds; binding result [3]: binds
AGGAGGGGGGCGGGA [Bcl2SH, 6-FAM] | > 200 | binds more weakly | 
GGCGAGGAGGGGCGTGGCCGGC [Kit*] |  |  | binding result [5]: binds more weakly
TAGGGAGGGTAGGGAGGGT [cMyc (Pu19_A2A11), 6-FAM] | > 200 | binds more weakly | 
